These are yes or no findings as the source states them, for the method shown. Binding seen in cells or lysates may run through a third protein. Some entries that bind do so weakly or less than the wild type. One block for each molecule: values may come before it.
Target: T1, YC-PP2CA (Arabidopsis thaliana) (UniProt P49598)
T1 sequence: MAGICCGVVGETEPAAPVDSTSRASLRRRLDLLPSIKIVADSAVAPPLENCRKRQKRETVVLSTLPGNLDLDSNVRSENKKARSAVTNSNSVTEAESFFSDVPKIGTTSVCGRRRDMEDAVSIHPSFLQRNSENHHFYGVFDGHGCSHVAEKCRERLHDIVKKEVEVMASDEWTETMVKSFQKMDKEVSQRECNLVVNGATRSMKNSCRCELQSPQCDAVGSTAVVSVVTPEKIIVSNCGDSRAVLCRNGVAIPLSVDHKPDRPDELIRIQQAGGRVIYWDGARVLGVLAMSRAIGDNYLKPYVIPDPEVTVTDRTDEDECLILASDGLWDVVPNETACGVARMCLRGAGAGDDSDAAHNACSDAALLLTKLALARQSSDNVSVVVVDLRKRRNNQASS
Experiment: split reporter

Chains of the proteins cited; added tags and fusions are not shown.
UniProt O49686: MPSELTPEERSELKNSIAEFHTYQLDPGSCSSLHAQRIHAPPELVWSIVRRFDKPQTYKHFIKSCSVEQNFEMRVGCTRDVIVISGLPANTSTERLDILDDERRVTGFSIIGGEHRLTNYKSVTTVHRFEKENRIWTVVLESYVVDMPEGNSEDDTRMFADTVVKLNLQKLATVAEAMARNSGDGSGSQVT

binding: binds
Molecule: YN-PYR1 (from UniProt O49686 1-191) (receptor)

binding: binds
B1: YN-WNK8 (enzyme, UniProt Q944Q0 1-563)
chain: MASGSGFLGQISSMEEADFAEKDPSGRYIRYDDVLGRGAFKTVYKAFDEVDGIEVAWNLVSIEDVMQMPGQLERLYSEVHLLKALKHENIIKLFYSWVDEKNKTINMITELFTSGSLRVYRKKHRKVDPKAIKNWARQILKGLNYLHSQNPPVIHRDLKCDNIFVNGNTGEVKIGDLGLATVLQQPTARSVIGTPEFMAPELYEEEYNELVDIYSFGMCMLEMVTCEYPYNECRNQAQIYKKVTSNIKPQSLGKVDDPQVRQFIEKCLLPASSRPTALELSKDPFLARDGGKDSALLASSSTSSKYVRPPQLEHLPMDVDHNENKSVSSNEDYPWSQTIELQRIAENKEFRLRGERSDDVTASMVLRIADPSGKCRIVHFAFYLESDTATAIAEEMVEELHLTSQEVVVIADMIDDFIMQLLSDRTSSHHNQNSPRLTHEDHEAANQQTVNSKDEEAAGQSMKSDISADYYFPYSANDGNAAMEAGRDAESMSSYLDSCSMMSTIYNLSISDNDYPEDLKTELNLIESQFNQSFQDLLKLKEDAIENAKRKWITKKQKAVNIS
